Data published in paper PMC9344665.
Where a chain is given by its changes, count along the chain named. Results are given in words; binding and its absence hold for the method and conditions named. Sequences can lack the tags named with a protein.

Columns and labels:
[1] = target: T1, FARSA P347L variant (human) (UniProt Q9Y285); experiment: co-purification of coexpressed proteins (Ni-NTA, then heparin chromatography); mutant His6-FARSA coexpressed with FARSB carrying a C-terminal His6-tag in E. coli Rosetta (DE3); both captured on Ni-NTA, the Ni-NTA eluate loaded on a heparin column; SDS-PAGE of loading, flow-through and elution samples
T1 sequence: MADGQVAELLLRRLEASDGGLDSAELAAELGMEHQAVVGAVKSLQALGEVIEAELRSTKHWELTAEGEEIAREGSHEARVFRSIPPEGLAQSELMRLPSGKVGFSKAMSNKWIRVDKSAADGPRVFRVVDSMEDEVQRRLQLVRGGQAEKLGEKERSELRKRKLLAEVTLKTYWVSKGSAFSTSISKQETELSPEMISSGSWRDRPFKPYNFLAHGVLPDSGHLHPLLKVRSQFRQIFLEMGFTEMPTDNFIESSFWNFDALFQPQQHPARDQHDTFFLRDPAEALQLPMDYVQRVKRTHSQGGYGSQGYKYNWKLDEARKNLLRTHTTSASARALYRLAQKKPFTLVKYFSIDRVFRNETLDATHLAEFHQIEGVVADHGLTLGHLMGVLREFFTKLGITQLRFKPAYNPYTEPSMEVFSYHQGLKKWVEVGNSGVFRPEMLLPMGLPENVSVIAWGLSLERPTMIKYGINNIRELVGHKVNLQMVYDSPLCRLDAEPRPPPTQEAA

[2] = target: T2, FARSA R404C variant (human) (UniProt Q9Y285); experiment: as above
T2 sequence: T1 sequence with L347P, R404C

B1: FARSB with a His6-tag at the C-terminus (enzyme, UniProt Q9NSD9 1-584)
chain: MPTVSVKRDLLFQALGRTYTDEEFDELCFEFGLELDEITSEKEIISKEQGNVKAAGASDVVLYKIDVPANRYDLLCLEGLVRGLQVFKERIKAPVYKRVMPDGKIQKLIITEETAKIRPFAVAAVLRNIKFTKDRYDSFIELQEKLHQNICRKRALVAIGTHDLDTLSGPFTYTAKRPSDIKFKPLNKTKEYTACELMNIYKTDNHLKHYLHIIENKPLYPVIYDSNGVVLSMPPIINGDHSRITVNTRNIFIECTGTDFTKAKIVLDIIVTMFSEYCENQFTVEAAEVVFPNGKSHTFPELAYRKEMVRADLINKKVGIRETPENLAKLLTRMYLKSEVIGDGNQIEIEIPPTRADIIHACDIVEDAAIAYGYNNIQMTLPKTYTIANQFPLNKLTELLRHDMAAAGFTEALTFALCSQEDIADKLGVDISATKAVHISNPKTAEFQVARTTLLPGLLKTIAANRKMPLPLKLFEISDIVIKDSNTDVGAKNYRHLCAVYYNKNPGFEIIHGLLDRIMQLLDVPPGEDKGGYVIKASEGPAFFPGRCAEIFARGQSVGKLGVLHPDVITKFELTMPCSSLEIN
binding [1]: no binding
binding [2]: no binding
